Test system: corneal kindling mice
Assay: Corneal kindling in mice
Format: in vivo, mouse
[1] = rotarod TD50 / corneal kindling ED50, worked out from literature values

Compound	Protective index (i.e., TD50/ED50) [1]	Protective index (i.e., TD50/ED50) (rotarod TD50 / corneal kindling ED50, from the authors' own values)
O=C1CN=C(c2ccccc2Cl)c2cc([N+](=O)[O-])ccc2N1 [Clonazepam, clonazepam]	6.5	–
NS(=O)(=O)N[C@H]1c2c(F)cc(F)cc2CC1(F)F [E2730]	–	44.3
CCC1(C)CC(=O)NC1=O (centres unmarked) [Ethosuximide, ethosuximide]	<1.3	–
CC[C@@H](C(N)=O)N1CCCC1=O [Levetiracetam, levetiracetam]	>31.2	–
Cc1ccsc1C(=CCCN1CCC[C@@H](C(=O)O)C1)c1sccc1C [Tiagabine, tiagabine]	2.5	–

Source: PMC10472371, “Discovery of E2730, a novel selective uncompetitive GAT1 inhibitor, as a candidate for anti‐seizure medication” (Epilepsia Open, 2023)
